Source: PubChem BioAssay
Inconclusive means that the source gave no clear call. Such entries were picked first, then a sample of the others. Active and inactive are the calls of the source.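 How the source made its calls, unless noted: active means thallium flux slope above the same plate's solvent-only control mean plus 3 SD; inconclusive means the two replicate wells disagree; inactive means no significant difference from solvent-only control wells.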

By UniProt entry, the sequences of proteins in these tests, tags left out. Where a name states a change or a piece, a line headed by the entry shows the natural chain unless it says otherwise.
UniProt Q9H2X9: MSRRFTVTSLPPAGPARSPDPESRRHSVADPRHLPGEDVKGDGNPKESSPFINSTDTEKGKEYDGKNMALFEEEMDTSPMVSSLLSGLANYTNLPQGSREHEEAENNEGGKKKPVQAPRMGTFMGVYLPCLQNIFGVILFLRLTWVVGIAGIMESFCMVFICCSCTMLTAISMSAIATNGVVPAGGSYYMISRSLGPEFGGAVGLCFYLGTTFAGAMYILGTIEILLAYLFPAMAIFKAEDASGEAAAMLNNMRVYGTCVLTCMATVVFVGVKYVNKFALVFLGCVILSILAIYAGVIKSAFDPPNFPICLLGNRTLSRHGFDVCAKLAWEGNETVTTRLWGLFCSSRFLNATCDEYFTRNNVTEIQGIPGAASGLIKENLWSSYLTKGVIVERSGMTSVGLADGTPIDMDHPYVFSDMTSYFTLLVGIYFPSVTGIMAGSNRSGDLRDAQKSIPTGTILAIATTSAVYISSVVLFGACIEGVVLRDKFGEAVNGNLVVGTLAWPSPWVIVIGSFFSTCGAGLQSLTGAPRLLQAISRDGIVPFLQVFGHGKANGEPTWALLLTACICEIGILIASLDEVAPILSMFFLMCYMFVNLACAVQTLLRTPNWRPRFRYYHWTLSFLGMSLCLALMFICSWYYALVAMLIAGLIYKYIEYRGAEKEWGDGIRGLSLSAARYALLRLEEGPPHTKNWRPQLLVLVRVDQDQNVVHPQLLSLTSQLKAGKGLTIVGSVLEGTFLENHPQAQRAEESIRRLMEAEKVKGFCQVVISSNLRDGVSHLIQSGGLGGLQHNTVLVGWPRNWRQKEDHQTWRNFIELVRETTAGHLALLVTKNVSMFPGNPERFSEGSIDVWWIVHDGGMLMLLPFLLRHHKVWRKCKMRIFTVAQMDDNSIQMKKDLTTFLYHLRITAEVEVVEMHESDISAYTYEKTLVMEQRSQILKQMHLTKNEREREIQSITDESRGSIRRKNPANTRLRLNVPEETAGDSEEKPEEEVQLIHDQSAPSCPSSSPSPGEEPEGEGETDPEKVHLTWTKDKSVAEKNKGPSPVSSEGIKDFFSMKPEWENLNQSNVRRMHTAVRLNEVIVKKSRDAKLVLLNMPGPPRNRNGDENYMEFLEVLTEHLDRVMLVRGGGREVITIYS

Columns and labels:
[1] = molecular target: Solute carrier family 12 member 5 (Homo sapiens) (UniProt Q9H2X9); test: retest of KCC2 transport modulators without sodium – cell-based, HEK293 KCC2, thallium flux, secondary assay, confirmation (AID 1713); details: FluoZin2 fluorescence, at 10 µM, hits give high values
In short: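 Evaluation: F/F0 slope over 10–20 s post-thallium, baseline-normalized / Material: KCC2-expressing HEK cells / Detection: FluoZin2 fluorescence, 480/540 nm, 1 Hz / Times: 48 min dye loading / Medium: Sodium-free N-methylglucamine chloride buffer / Compound: 10 µM single dose, 0.1% DMSO / Control set: bumetanide and DMSO controls / Probe or stimulus: thallium sulfate stimulus buffer at pH 7.3 / Repeats: duplicates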

[2] = compound effects on native HEK Tl+ uptake – HEK cells, counterscreen 1, counter-screen for KCC2 modulator project, confirmation (AID 1716;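 active means thallium flux rate significantly above the same plate's solvent-only control wells, beyond their mean plus 3 SD; inconclusive means the two replicate wells gave conflicting results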); details: HEK293 parental cells, thallium flux FluoZin2, ouabain; at 10 µM; baseline-ratio fluorescence slope, 10–20 s after thallium
[3] = molecular target: Solute carrier family 12 member 5 (Homo sapiens) (UniProt Q9H2X9); test: modulation of KCC2 thallium flux in HEK cells – cell-based, ouabain, retest, confirmation (AID 1717;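 active means thallium flux slope beyond 3 SD from same-plate DMSO control mean in most replicates, usually higher, sometimes lower; inconclusive means repeat tests gave conflicting results; inactive means no significant difference from controls in most replicates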;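 further: slope of initial-normalized fluorescence between seconds 10 and 20 after thallium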); details: HEK293-KCC2, thallium flux FluoZin2 fluorescence, at 10 µM, bidirectional: low = inhibitor, high = activator

| SMILES | normalised thallium flux (F/F0 slope) [1] | thallium flux rate (normalised fluorescence) [2] | raw Tl+ flux slope (below DMSO = inhibition, above = activation) [3] |
| --- | --- | --- | --- |
| CCOC(=O)N1CCN(C(=S)NC(=O)c2ccc(Br)cc2)CC1 | active: 0.0229 | inconclusive: 0.00857 | – |
| CCOC(=O)Cc1csc(NC(=S)NC(=O)CC(C)C)n1 | inconclusive: 0.0109 | active: 0.0139 | active: 0.0358 |
| COC(=O)c1sccc1NC(=S)NCc1ccc(Cl)cc1 | active: 0.07 | inconclusive: 0.0649 | – |
| Cc1nc(-c2nc(-c3c(C(=O)NNC(=O)c4ccc(Cl)cc4)noc3C)cs2)cs1 | active: 0.0432 | inconclusive: 0.0526 | – |
| COc1cccc(NC(=O)COC(=O)c2nc3nccc(C)n3n2)c1 | inactive: 0.0077 | inconclusive: 0.00814 | – |
| Cc1nnc(SCC(=O)c2cc(C)n(-c3ccc4c(c3)OCO4)c2C)s1 | inconclusive: 0.00679 | inconclusive: 0.0059 | – |
| CCOC(=O)C1=NN(C(=O)c2cccc(Br)c2)C(O)(C(C)(C)C)C1 (stereo not drawn) | active: 0.0481 | inconclusive: 0.0518 | – |
| Oc1[nH]c2ccc(Br)cc2c1N=NC(=S)NCC1CCCO1 (stereo not drawn) | active: 0.0138 | inconclusive: 0.0326 | – |
| Cc1cccc(NC(=S)NNC(=S)NC2CCCCC2)c1C | inactive: 0.00886 | active: 0.0094 | inconclusive: 0.0226 |
| CCN(CC)c1ccc(/C=N/NC(=S)NC)c(O)c1 | inactive: 0.00907 | inconclusive: 0.00814 | – |
| Cc1ccc(NC(=O)COC(=O)/C=C/c2ccccc2)cc1S(=O)(=O)N1CCOCC1 | inconclusive: 0.0126 | inconclusive: 0.00651 | – |
| COc1cc(C(=O)NNC(=S)NC(=O)c2ccc(F)cc2)cc(OC)c1OC | inactive: 0.0114 | active: 0.0137 | inconclusive: 0.0246 |
| Cc1cc(C)c2nc(N3CCC(C(=O)N4CCCC4)CC3)sc2c1 | inconclusive: 0.00645 | inactive: 0.00408 | – |
| O=C(NCc1csc(-c2ccccc2)n1)c1cc(F)cc2c1OCOC2 | inconclusive: 0.00566 | inactive: 0.00606 | – |
| CCOc1ccc(NC(=S)NC(=O)c2c(Cl)c(C)nn2C)c([N+](=O)[O-])c1 | inactive: 0.011 | inconclusive: 0.00795 | inconclusive: 0.0265 |
| Cn1c(Cc2c[nH]c3ccccc23)n[nH]c1=S | inactive: 0.00633 | inconclusive: 0.00759 | inconclusive: 0.0156 |
| N#Cc1c(-c2ccc(C(F)(F)F)cc2)cc(-c2ccccc2)[nH]c1=S | active: 0.0201 | inconclusive: 0.0108 | – |
| CCc1ccc(OCC(=O)NNC(=O)CSc2ncnc3sc(C)c(C)c23)cc1 | inconclusive: 0.0107 | active: 0.0102 | inconclusive: 0.0244 |

| SMILES | normalised thallium flux (F/F0 slope) [1] | thallium flux rate (normalised fluorescence) [2] | raw Tl+ flux slope (below DMSO = inhibition, above = activation) [3] |
| --- | --- | --- | --- |
| CCOC(=O)N1CCN(C(=O)c2ccc3c(=O)n(-c4ccc(OC)cc4)c(=S)[nH]c3c2)CC1 | inactive: 0.0153 | inconclusive: 0.0089 | inactive: 0.0171 |
| O=C(NC(=S)N(CCO)Cc1ccccc1)c1cc(Br)ccc1Cl | active: 0.0152 | inconclusive: 0.0139 | – |
| CC1CCN(C(=O)CSc2ccc(-c3ccccc3)nn2)CC1 | inconclusive: 0.00614 | inactive: 0.00755 | – |
| COC(=O)c1cccc(C23CC4(C2)[C@H](CN(Cc2cccnc2)[C@@H]4c2ccccc2)C3c2ccc(C(F)(F)F)cc2)c1 (stereo partly drawn) | inconclusive: 0.0116 | inactive: 0.00872 | – |
| O=S(=O)(NCCSc1ccccc1)c1ccc2c(c1)OCCO2 | inconclusive: 0.0066 | inactive: 0.00626 | inconclusive: 0.0182 |
| C=CCn1c(SCC#N)nc2c(c1=O)C(C)(C)Cc1ccccc1-2 | inactive: 0.0061 | inconclusive: 0.00636 | inactive: 0.0184 |
| O=[N+]([O-])c1ccccc1Sc1nccn1Cc1ccccc1 | inactive: 0.00678 | inconclusive: 0.0032 | – |
| COc1cc2[nH]c(=S)n(C3CCCC3)c(=O)c2cc1OC | inconclusive: 0.0107 | active: 0.0171 | – |
| COc1ccc(C2=NN(C(=O)c3cccs3)C(O)(C(F)(F)F)C2)cc1 (stereo not drawn) | inconclusive: 0.00477 | inconclusive: 0.00913 | inactive: 0.0217 |
| NS(=O)(=O)c1ccc(CCn2c(=S)[nH]c3ccc(F)cc3c2=O)cc1 | inconclusive: 0.0111 | active: 0.00926 | inactive: 0.0202 |
| O=C(Nc1nnc(-c2cccnc2)o1)c1cccc(Cl)c1 | inconclusive: 0.0126 | inconclusive: 0.0163 | active: 0.0339 |
| Cc1cccc(NC(=O)CSc2nnc(CSc3nc(C)cc(C)n3)n2Cc2ccco2)c1 | inactive: 0.00656 | inconclusive: 0.00604 | – |
| COc1cccc2sc(Nc3nnc(-c4ccccc4Cl)o3)nc12 | active: 0.0439 | inconclusive: 0.0449 | – |
| CN(CC(=O)Nc1cc(S(=O)(=O)N2CCCC2)ccc1Cl)Cc1cccs1 | inconclusive: 0.00642 | inactive: 0.00335 | – |
| COc1cccc(/C=N/NC(=O)CSc2cccc3cccnc23)c1 | inactive: 0.0111 | inconclusive: 0.0111 | – |
| COc1ccccc1-c1nnc(SCC(=O)Nc2nc(-c3ccccc3)cs2)n1C | inconclusive: 0.00633 | inactive: 0.00346 | active: 0.0148 |
| O=S1(=O)C=C(SCc2cccc(Cl)c2)Nc2ccccc21 | inconclusive: 0.00637 | inactive: 0.00724 | – |

Compounds shown so far containing a CF3 group:

| SMILES | normalised thallium flux (F/F0 slope) [1] | thallium flux rate (normalised fluorescence) [2] | raw Tl+ flux slope (below DMSO = inhibition, above = activation) [3] |
| --- | --- | --- | --- |
| N#Cc1c(-c2ccc(C(F)(F)F)cc2)cc(-c2ccccc2)[nH]c1=S | active: 0.0201 | inconclusive: 0.0108 | – |
| COC(=O)c1cccc(C23CC4(C2)[C@H](CN(Cc2cccnc2)[C@@H]4c2ccccc2)C3c2ccc(C(F)(F)F)cc2)c1 (stereo partly drawn) | inconclusive: 0.0116 | inactive: 0.00872 | – |
| COc1ccc(C2=NN(C(=O)c3cccs3)C(O)(C(F)(F)F)C2)cc1 (stereo not drawn) | inconclusive: 0.00477 | inconclusive: 0.00913 | inactive: 0.0217 |
